The other results are listed elsewhere or left out. The data scatter; read single values as rough.
Experiments:
[1] = compound: ClCC(=O)N[C@@H]1CCCc2ccccc12; assay: log2 mean competition ratio of IA-DTB cysteine labelling (DMSO/compound) (log2 ratio); higher = stronger cysteine engagement by compound; settings: treatment time: 4 h, cell line lysate: HEK293T
Description: (§1)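 IA-DTB competitive cysteine chemoproteomics in HEK293T RIPA lysate. Lysates were treated with compound 29 or 30 at 50 or 200 µM for 4 h, then IA-DTB (500 µM, 1 h), trypsin-digested, NeutrAvidin-enriched and analysed by diaPASEF. Competition ratio = intensity DMSO / intensity compound (n=4 treated, n=64 DMSO); binding: mean log2 CR ≥ 1 and p ≤ 0.05 plus QC filters. Target is the cysteine site.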

By UniProt entry, the sequences of proteins in these tests, tags left out. Where a name states a change or a piece, a line headed by the entry shows the natural chain unless it says otherwise.
UniProt Q92610: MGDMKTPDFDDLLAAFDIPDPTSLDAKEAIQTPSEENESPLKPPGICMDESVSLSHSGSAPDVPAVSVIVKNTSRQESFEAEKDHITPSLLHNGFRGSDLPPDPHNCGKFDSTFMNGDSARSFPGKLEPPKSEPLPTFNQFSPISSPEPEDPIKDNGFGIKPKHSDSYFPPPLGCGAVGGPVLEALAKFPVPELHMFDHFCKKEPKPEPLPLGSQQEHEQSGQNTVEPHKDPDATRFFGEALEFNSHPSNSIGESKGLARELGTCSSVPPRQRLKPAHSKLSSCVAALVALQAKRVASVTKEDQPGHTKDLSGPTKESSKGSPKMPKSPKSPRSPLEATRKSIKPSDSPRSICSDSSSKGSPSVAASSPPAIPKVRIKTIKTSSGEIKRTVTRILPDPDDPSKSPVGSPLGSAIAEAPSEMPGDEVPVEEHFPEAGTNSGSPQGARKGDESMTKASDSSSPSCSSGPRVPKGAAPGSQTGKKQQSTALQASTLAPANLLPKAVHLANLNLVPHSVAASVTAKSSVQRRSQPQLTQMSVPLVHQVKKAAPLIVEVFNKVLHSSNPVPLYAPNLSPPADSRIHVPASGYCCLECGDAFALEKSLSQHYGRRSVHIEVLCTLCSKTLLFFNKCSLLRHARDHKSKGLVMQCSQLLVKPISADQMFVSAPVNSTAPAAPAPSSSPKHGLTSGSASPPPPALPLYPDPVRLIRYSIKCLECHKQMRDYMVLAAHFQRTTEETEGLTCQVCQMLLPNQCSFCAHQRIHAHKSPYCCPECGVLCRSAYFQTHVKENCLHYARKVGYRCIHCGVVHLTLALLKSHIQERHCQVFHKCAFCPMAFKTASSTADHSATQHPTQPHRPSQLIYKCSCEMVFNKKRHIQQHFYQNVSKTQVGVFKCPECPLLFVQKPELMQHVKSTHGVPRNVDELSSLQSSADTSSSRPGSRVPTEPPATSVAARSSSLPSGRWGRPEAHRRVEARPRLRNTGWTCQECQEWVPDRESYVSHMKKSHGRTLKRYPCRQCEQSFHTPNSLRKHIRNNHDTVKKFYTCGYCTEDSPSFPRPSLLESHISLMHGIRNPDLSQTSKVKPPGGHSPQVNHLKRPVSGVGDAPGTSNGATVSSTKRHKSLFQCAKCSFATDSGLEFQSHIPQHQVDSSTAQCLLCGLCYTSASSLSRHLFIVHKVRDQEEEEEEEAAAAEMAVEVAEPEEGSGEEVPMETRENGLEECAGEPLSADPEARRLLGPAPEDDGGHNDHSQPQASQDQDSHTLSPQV
UniProt Q96AP4: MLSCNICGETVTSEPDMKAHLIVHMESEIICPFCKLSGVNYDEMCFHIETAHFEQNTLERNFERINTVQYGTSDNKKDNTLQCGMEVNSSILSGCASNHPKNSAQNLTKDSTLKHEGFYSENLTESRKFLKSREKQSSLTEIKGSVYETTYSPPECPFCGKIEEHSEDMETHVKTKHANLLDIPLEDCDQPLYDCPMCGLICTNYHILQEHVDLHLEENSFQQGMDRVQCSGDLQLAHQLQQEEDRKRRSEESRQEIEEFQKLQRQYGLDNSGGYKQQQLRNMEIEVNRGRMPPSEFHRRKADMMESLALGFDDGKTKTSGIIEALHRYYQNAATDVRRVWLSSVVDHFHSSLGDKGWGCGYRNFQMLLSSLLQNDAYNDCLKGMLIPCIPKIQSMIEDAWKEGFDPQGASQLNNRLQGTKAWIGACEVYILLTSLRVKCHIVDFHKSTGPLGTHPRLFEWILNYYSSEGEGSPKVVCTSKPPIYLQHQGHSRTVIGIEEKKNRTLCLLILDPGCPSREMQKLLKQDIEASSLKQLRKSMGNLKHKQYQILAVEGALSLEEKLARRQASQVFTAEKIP
UniProt Q8IYH5: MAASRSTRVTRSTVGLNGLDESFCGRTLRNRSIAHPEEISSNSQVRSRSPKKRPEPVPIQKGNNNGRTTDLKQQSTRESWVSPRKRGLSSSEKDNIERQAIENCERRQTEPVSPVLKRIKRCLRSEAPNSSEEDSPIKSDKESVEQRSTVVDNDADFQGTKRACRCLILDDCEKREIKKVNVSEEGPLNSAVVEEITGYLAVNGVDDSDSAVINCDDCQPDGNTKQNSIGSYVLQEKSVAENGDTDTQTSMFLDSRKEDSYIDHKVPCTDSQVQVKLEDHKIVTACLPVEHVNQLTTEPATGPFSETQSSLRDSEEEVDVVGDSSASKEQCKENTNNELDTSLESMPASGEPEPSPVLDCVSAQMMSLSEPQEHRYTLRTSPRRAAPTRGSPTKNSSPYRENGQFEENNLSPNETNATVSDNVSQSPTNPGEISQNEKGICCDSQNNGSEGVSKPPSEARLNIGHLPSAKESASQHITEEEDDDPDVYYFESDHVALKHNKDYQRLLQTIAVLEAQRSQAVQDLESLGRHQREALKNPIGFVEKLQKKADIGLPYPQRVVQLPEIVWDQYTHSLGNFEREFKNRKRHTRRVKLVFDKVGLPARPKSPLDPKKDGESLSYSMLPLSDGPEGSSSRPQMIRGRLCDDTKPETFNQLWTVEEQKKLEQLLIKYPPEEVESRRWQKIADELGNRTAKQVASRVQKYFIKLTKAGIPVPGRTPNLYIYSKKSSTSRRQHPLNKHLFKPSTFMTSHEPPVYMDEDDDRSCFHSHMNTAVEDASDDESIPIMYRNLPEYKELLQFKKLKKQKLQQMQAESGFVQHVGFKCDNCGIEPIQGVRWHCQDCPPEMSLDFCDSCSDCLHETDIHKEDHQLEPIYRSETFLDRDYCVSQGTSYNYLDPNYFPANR

[2] = compound: ClCC(=O)N[C@H]1CCCc2ccccc12; assay: as above; settings: treatment time: 4 h, cell line lysate: HEK293T
Description: as §1

## ZNF592 C1221 (UniProt Q92610)
[1]; 50 µM
  log2 mean competition ratio: -0.387
[1]; 200 µM
  log2 mean competition ratio: 0.144
[2]; 50 µM
  log2 mean competition ratio: -0.127
[2]; 200 µM
  log2 mean competition ratio: 0.237

## ZUP1 C360 (UniProt Q96AP4)
[1]; 50 µM
  log2 mean competition ratio: 0.197
[1]; 200 µM
  log2 mean competition ratio: -0.193
[2]; 50 µM
  log2 mean competition ratio: -0.185
[2]; 200 µM
  log2 mean competition ratio: -0.166

## ZNF550 C354
[1]; 50 µM
  log2 mean competition ratio: -0.0114
[1]; 200 µM
  log2 mean competition ratio: 0.256
[2]; 50 µM
  log2 mean competition ratio: 0.136
[2]; 200 µM
  log2 mean competition ratio: 0.377

## ZZZ3 C268 (UniProt Q8IYH5)
[1]; 50 µM
  log2 mean competition ratio: -0.0491
[1]; 200 µM
  log2 mean competition ratio: -0.0806
[2]; 50 µM
  log2 mean competition ratio: -0.493
[2]; 200 µM
  log2 mean competition ratio: -0.137
